Experimental findings from paper PMC7619307, “The Golgi vesicle tether p115 can bind directly to the ER exit site organiser Sec16A” (Journal of cell science, 2026) are described below.

The chains behind the UniProt entries cited, without tags or fusion partners.
UniProt Q99996: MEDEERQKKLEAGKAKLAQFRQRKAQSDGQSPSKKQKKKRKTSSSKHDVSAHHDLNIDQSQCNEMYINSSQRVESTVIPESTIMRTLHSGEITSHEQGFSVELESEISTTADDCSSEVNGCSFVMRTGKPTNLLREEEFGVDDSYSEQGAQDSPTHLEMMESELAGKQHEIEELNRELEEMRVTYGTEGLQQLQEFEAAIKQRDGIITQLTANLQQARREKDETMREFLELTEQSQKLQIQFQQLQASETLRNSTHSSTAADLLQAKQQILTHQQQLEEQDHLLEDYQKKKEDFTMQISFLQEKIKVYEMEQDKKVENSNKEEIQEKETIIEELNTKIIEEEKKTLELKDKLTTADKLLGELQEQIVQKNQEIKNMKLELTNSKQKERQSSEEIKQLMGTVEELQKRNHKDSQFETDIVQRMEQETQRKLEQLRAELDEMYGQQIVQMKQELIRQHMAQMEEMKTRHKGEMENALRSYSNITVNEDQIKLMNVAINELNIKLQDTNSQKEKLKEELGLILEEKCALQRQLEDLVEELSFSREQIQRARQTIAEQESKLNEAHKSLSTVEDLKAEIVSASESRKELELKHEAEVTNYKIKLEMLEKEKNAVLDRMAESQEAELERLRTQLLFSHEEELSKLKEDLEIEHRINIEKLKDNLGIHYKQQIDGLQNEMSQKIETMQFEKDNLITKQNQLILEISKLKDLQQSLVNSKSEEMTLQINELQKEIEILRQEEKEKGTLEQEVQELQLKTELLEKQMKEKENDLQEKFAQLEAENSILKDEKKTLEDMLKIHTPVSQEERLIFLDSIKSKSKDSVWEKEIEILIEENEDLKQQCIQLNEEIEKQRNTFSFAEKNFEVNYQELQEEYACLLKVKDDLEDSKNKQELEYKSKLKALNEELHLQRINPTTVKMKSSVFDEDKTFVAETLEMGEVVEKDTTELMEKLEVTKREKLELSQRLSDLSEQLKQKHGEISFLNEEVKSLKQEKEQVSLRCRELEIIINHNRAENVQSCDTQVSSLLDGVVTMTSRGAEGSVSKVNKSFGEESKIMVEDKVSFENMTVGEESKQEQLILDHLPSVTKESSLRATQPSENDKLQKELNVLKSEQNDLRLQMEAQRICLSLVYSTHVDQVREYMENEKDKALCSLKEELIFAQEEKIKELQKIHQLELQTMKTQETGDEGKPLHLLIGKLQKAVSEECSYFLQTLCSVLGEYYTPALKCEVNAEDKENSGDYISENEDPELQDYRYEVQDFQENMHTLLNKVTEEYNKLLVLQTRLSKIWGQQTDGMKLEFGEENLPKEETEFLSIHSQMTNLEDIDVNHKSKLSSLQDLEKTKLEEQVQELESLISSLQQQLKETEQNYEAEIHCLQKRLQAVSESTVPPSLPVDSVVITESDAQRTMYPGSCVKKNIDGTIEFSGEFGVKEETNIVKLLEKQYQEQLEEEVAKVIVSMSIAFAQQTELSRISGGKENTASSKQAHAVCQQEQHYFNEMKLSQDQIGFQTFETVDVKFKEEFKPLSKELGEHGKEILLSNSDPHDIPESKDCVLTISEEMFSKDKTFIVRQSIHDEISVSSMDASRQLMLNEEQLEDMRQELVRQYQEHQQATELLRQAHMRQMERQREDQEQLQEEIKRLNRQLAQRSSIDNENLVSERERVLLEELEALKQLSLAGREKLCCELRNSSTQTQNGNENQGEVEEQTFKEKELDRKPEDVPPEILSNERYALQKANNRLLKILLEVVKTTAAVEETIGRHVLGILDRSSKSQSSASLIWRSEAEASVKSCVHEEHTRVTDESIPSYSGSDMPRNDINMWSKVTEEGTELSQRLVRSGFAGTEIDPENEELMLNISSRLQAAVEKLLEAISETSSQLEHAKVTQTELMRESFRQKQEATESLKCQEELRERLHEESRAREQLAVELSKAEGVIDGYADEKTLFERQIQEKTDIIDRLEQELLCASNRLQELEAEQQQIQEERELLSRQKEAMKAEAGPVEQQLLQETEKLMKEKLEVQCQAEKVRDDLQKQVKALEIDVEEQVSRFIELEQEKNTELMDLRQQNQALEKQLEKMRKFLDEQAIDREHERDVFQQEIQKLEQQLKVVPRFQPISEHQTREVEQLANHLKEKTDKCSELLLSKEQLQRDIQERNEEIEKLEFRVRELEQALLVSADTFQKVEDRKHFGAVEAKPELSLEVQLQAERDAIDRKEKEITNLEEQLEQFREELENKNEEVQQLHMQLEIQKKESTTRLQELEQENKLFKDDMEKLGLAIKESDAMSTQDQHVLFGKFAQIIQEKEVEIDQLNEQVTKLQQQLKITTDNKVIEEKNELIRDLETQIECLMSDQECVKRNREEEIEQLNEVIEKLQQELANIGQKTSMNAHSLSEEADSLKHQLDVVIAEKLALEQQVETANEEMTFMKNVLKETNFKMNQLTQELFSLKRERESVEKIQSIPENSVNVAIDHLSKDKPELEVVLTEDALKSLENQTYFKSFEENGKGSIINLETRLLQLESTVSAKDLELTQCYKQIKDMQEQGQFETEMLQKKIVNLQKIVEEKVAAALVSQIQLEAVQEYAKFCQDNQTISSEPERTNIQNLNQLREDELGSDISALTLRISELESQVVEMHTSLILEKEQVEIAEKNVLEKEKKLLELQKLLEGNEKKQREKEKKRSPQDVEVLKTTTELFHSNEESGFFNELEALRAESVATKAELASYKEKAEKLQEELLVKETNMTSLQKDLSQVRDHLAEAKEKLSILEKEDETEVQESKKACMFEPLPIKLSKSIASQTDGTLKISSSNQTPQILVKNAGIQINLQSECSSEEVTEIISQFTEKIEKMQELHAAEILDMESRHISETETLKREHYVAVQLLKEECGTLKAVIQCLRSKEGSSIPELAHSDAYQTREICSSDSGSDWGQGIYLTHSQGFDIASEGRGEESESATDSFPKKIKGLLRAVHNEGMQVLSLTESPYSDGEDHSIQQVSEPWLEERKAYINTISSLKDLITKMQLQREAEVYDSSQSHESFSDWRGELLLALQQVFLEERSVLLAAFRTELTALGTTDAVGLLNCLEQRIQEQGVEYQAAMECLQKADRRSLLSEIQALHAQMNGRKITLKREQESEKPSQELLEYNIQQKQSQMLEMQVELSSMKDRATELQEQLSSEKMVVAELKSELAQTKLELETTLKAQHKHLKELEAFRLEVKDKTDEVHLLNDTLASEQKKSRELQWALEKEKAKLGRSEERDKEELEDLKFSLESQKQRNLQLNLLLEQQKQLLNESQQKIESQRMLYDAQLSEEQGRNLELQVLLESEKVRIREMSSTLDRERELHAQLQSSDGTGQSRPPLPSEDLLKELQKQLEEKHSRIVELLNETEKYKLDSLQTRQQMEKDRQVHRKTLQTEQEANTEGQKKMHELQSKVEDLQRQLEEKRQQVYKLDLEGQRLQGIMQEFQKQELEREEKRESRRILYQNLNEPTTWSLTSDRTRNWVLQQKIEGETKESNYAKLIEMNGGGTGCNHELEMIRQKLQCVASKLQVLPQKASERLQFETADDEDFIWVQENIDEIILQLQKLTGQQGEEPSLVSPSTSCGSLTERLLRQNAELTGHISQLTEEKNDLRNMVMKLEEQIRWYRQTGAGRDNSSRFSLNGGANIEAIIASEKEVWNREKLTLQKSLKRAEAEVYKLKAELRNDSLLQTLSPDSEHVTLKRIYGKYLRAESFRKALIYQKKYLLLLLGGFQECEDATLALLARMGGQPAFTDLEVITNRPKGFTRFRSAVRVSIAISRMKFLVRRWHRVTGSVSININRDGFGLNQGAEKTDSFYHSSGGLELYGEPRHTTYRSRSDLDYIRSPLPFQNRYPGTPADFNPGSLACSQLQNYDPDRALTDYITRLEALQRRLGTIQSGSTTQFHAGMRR
UniProt Q9BQQ3: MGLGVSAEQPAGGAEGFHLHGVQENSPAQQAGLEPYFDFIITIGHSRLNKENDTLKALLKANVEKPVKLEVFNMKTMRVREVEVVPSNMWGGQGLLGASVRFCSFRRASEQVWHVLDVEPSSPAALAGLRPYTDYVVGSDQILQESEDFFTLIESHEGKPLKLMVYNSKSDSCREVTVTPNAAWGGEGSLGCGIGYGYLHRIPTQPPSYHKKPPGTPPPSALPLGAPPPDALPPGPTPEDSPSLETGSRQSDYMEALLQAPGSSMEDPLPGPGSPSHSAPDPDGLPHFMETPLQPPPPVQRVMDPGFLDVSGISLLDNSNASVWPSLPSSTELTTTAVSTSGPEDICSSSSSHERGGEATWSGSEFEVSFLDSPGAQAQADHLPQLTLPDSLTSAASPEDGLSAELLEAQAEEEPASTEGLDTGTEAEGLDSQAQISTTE
UniProt Q96SN8: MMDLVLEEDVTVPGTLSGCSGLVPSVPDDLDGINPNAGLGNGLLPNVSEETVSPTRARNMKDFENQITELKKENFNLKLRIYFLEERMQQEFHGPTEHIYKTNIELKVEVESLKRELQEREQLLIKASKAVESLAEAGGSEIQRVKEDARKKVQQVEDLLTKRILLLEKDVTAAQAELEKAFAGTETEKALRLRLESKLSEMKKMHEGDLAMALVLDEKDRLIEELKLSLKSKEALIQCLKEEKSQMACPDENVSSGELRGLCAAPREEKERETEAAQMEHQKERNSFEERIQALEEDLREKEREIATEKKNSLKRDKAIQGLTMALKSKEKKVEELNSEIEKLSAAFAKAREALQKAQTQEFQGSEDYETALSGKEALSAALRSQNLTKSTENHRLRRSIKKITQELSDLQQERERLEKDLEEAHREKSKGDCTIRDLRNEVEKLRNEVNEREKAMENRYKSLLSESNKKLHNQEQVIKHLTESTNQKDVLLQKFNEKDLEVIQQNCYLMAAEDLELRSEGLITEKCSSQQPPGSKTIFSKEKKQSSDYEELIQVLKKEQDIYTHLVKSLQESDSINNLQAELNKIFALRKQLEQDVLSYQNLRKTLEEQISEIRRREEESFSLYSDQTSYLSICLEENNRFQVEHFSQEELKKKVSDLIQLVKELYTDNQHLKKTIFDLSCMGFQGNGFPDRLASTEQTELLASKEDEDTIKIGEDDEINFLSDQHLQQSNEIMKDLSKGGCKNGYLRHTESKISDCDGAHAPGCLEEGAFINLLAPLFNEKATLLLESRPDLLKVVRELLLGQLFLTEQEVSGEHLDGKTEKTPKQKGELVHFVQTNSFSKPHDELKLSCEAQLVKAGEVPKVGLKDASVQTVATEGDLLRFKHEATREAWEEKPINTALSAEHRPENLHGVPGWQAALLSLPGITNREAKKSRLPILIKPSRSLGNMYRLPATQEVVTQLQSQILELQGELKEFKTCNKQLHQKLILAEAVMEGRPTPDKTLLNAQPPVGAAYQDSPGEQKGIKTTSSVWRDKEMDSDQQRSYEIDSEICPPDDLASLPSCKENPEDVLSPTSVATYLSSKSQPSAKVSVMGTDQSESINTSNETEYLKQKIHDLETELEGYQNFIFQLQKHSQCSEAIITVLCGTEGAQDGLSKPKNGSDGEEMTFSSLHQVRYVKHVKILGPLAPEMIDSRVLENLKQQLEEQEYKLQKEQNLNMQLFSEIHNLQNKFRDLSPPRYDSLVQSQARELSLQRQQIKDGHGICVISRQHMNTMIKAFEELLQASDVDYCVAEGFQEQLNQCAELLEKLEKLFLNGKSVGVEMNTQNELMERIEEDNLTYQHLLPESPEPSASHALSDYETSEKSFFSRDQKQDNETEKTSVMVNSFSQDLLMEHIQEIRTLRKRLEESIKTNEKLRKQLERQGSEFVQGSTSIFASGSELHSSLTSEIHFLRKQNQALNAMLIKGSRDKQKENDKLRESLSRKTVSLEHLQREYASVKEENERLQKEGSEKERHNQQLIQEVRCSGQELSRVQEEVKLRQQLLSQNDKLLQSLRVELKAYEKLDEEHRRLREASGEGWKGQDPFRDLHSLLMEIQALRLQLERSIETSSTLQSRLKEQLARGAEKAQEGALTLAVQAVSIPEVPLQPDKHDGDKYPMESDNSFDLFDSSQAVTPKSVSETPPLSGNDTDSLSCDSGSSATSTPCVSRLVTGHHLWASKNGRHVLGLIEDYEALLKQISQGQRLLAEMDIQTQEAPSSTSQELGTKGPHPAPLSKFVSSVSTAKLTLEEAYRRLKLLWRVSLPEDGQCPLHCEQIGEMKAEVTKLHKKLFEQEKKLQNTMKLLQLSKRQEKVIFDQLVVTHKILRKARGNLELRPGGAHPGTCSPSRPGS

What all share (assay): affinity purification with mass spectrometry; GFP-tagged p115 forms precipitated on GFP-Trap agarose from transfected HEK293T lysate (10 mM Tris-HCl pH 7.5, 150 mM NaCl, 0.5 mM EDTA, 0.5% Triton X-100; washes with 300 mM NaCl; 4°C); label-free mass spectrometry, biological triplicates; compared with GFP alone, head against tail, or wild type against Q462D
For test [1], the target named is T1, full-length p115–GFP (wild type) (human) (UniProt O60763).
T1 sequence: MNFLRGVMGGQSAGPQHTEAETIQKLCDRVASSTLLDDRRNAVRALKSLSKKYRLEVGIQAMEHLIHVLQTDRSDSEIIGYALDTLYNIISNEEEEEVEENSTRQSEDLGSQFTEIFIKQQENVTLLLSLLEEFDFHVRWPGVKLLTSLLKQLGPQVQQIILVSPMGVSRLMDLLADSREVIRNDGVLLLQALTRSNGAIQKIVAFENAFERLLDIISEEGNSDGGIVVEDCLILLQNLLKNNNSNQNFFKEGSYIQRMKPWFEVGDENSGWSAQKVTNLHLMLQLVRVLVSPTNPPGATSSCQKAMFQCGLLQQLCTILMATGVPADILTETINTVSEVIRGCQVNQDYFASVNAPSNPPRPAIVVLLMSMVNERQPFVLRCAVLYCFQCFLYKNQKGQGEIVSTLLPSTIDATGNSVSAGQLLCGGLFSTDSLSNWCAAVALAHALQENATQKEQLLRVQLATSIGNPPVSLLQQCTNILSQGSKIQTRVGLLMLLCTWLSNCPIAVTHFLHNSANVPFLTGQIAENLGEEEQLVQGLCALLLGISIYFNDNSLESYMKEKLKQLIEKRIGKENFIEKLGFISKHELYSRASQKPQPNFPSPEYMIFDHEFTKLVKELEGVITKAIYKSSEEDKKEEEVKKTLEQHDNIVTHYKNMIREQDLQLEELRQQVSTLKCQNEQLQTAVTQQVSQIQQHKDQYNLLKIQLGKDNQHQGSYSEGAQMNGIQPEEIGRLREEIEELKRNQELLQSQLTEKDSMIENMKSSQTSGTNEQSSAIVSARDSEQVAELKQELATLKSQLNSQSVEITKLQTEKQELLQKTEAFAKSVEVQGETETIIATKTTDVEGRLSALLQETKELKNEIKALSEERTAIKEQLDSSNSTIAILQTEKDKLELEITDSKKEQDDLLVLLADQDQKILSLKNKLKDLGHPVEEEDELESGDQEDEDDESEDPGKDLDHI

In test [2] the target is T2, full-length p115–GFP with the Q462D mutation (human) (UniProt O60763).
T2 sequence: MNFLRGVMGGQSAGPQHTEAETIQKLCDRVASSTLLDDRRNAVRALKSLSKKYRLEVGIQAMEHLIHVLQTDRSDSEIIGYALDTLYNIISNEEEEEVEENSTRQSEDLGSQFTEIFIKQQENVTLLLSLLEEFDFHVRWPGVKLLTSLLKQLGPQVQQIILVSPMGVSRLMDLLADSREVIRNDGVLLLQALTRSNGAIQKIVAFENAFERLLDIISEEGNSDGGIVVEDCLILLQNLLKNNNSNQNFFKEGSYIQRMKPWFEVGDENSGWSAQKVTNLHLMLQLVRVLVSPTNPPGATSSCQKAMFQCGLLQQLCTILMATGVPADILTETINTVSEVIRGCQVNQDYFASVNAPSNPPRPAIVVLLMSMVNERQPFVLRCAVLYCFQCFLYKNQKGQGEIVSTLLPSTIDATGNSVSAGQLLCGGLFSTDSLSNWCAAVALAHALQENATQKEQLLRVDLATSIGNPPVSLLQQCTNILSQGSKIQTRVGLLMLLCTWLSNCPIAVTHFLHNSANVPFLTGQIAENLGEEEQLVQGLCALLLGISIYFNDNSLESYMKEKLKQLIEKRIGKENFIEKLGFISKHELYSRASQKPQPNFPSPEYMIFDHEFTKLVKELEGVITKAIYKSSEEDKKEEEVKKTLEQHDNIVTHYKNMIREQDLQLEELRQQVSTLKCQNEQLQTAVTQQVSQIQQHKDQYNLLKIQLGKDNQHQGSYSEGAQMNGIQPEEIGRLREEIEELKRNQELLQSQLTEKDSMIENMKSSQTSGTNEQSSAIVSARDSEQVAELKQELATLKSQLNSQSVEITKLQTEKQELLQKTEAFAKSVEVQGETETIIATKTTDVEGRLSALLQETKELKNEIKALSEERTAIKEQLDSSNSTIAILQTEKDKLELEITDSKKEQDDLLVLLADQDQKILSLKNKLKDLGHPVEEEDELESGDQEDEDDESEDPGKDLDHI

The target in test [3] is GFP–p115-tail (human).

No constants are given. Whether binding was seen depends on the method and setting. In cells and extracts the contact can be indirect. Here binding means that the protein was enriched with, or labelled near, the bait; the list need not be complete. For some assays here: A no says only that the protein was not detected with the bait. For some assays here: Tags and fused reporters may be left off the sequences shown.

For Sec31 (human (endogenous in HEK293T)), the binding result in test [1] was “no binding”.
Turning to AKAP9 (from UniProt Q99996 1-3907), the binding result in test [1] is on record as “binds”.
With GORASP1 (from UniProt Q9BQQ3 1-440), in test [1], the binding result was “binds”.
Same read-out and setting: the same measure for PCM1 (from UniProt Q15154 1-2024): “binds”; for CDK5RAP2 (from UniProt Q96SN8 1-1893): “binds”.

B1: GM130 (protein, UniProt Q08379 1-1002)
chain: MWPQPRLPPRPAMSEETRQSKLAAAKKKLREYQQRNSPGVPTGAKKKKKIKNGSNPETTTSGGCHSPEDTPKDNAATLQPSDDTVLPGGVPSPGASLTSMAASQNHDADNVPNLMDETKTFSSTESLRQLSQQLNGLVCESATCVNGEGPASSANLKDLESRYQQLAVALDSSYVTNKQLNITIEKLKQQNQEITDQLEEEKKECHQKQGALREQLQVHIQTIGILVSEKAELQTALAHTQHAARQKEGESEDLASRLQYSRRRVGELERALSAVSTQQKKADRYNKELTKERDALRLELYKNTQSNEDLKQEKSELEEKLRVLVTEKAGMQLNLEELQKKLEMTELLLQQFSSRCEAPDANQQLQQAMEERAQLEAHLGQVMESVRQLQMERDKYAENLKGESAMWRQRMQQMSEQVHTLREEKECSMSRVQELETSLAELRNQMAEPPPPEPPAGPSEVEQQLQAEAEHLRKELEGLAGQLQAQVQDNEGLSRLNREQEERLLELERAAELWGEQAEARRQILETMQNDRTTISRALSQNRELKEQLAELQSGFVKLTNENMEITSALQSEQHVKRELGKKLGELQEKLSELKETVELKSQEAQSLQQQRDQYLGHLQQYVAAYQQLTSEKEVLHNQLLLQTQLVDQLQQQEAQGKAVAEMARQELQETQERLEAATQQNQQLRAQLSLMAHPGEGDGLDREEEEDEEEEEEEAVAVPQPMPSIPEDLESREAMVAFFNSAVASAEEEQARLRGQLKEQRVRCRRLAHLLASAQKEPEAAAPAPGTGGDSVCGETHRALQGAMEKLQSRFMELMQEKADLKERVEELEHRCIQLSGETDTIGEYIALYQSQRAVLKERHREKEEYISRLAQDKEEMKVKLLELQELVLRLVGDRNEWHGRFLAAAQNPADEPTSGAPAPQELGAANQQGDLCEVSLAGSVEPAQGEAREGSPRDNPTAQQIMQLLREMQNPRERPGLGSNPCIPFFYRADENDEVKITVI
As to B1, the binding entry in test [2], in test [3] and in test [1] was “binds” each time.
